Results taken from PMC5902029.
Results are given in words; binding and its absence hold for the method and conditions named. Binding seen in cells or lysates may run through a third protein. Some entries that bind do so weakly or less than the wild type. Values belong to the molecule of their own block, whether it stands above or below them.

Protein sequences, listed by entry. Tags and fused reporters are not part of them. Residues count along the entry.
UniProt Q5NCH9, residues 24-871: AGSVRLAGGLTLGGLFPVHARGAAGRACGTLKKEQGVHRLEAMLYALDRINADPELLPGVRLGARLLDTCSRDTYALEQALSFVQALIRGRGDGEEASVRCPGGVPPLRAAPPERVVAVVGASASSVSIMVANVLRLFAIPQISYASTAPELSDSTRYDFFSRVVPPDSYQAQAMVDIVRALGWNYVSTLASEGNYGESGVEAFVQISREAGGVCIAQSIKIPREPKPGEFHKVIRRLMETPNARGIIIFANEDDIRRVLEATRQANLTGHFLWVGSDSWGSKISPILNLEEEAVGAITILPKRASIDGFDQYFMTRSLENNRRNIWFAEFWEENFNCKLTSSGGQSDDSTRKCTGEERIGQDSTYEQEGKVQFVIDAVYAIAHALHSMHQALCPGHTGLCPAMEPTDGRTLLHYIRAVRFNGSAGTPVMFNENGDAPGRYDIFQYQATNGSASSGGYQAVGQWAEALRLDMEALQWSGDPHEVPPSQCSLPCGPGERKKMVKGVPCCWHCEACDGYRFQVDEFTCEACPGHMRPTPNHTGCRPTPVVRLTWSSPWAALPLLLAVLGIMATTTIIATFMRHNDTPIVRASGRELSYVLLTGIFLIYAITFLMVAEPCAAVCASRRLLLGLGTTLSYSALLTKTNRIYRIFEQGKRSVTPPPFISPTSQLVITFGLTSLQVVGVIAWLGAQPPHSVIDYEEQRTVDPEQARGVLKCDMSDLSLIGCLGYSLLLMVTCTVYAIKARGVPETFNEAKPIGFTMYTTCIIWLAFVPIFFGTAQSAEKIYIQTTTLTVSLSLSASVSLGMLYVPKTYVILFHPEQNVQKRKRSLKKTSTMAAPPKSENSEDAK

Experiments:
[1] = target: T1, LRIT1 expressed in transfected HEK293T cells (UniProt Q8K099); assay: co-IP; HEK293T cells co-transfected with combinations of mGluR6 and LRIT1; forward and reverse immunoprecipitation with anti-LRIT1 and anti-mGluR6 antibodies; detection by western blotting
T1 sequence: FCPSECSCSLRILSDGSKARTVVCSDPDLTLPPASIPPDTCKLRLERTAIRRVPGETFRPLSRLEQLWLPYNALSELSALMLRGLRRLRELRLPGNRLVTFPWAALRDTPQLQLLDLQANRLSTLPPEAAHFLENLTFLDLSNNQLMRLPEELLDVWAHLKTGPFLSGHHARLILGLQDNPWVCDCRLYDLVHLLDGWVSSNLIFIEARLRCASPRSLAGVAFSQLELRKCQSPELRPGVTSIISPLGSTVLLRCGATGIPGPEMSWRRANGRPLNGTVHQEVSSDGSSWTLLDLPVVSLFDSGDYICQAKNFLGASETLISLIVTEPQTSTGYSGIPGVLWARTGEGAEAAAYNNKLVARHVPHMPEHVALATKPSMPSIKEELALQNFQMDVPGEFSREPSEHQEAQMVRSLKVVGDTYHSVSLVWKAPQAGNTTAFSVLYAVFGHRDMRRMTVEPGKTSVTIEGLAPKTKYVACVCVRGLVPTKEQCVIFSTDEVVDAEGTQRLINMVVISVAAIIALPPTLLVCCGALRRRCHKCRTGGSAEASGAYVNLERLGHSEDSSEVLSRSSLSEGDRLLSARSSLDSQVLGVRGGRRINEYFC

[2] = target: mGluR6 (metabotropic glutamate receptor 6), endogenous in mouse retina (mouse (endogenous in retina)) (UniProt Q5NCH9); assay: co-IP; anti-mGluR6 immunoprecipitation from wild-type mouse retina lysates; LRIT1 and mGluR6 detected in the eluates by western blotting; nob3 retinas lacking mGluR6 as specificity control
[3] = target: mGluR6 expressed in transfected HEK293T cells (UniProt Q5NCH9); assay: co-IP; HEK293T cells co-transfected with combinations of mGluR6 and LRIT1; forward and reverse immunoprecipitation with anti-LRIT1 and anti-mGluR6 antibodies; detection by western blotting

- binding [1]: binds
Molecule: mGluR6 expressed in transfected HEK293T cells (from UniProt Q5NCH9 24-871) (receptor)

- binding [2]: binds
B1: LRIT1, endogenous in mouse retina (protein, UniProt Q8K099 22-624)
chain: T1 sequence

- binding [3]: binds
B2: LRIT1 expressed in transfected HEK293T cells (protein, UniProt Q8K099 22-624)
chain: T1 sequence
